Test results reported in patent publication US7501438B2, “Pyridoimidazole derivatives” (Forest Laboratories Holdings Limited, priority 2006, dated 2009).
Some results were stated once for a whole list of compounds, not compound by compound.

test system: cannabinoid (e.g., CB2) receptor; assay: Competition Binding Assay (96 Well Filtration) with [3H]CP 55,940; conditions: at 10 μM concentration; radioligand [3H]CP 55,940 1.0 nM, membrane extracts

Row | SMILES | binding activities / binding affinities [%]
1 | O=C(c1cccc2ccccc12)c1nc(CCN2CCOCC2)n2ccccc12 [Example 17, [3-(2-morpholin-4-yl-ethyl)-imidazo[1,5-a]pyridin-1-yl]-naphthalen-1-yl-methanone] | > 60
2 | O=C(NC12CC3CC(CC(C3)C1)C2)c1nc(CCN2CCOCC2)n2ccccc12 [Example 20, 3-(2-morpholin-4-yl-ethyl)-imidazo[1,5-a]pyridine-1-carboxylic acid adamantan-1-ylamide] | > 60
3 | CCCC(=O)c1nc(-c2cccc3ccccc23)n2ccccc12 [Example 1, 1-(3-naphthalen-1-yl-imidazo[1,5-a]pyridin-1-yl)-butan-1-one] | > 60
4 | O=C(c1ccccc1I)c1nc(CCN2CCOCC2)n2ccccc12 [Example 18, (2-iodo-phenyl)-[3-(2-morpholin-4-yl-ethyl)-imidazo[1,5-a]pyridin-1-yl]-methanone] | > 60
5 | O=C(c1ccccc1I)c1nc(-c2cccc3ccccc23)n2ccccc12 [Example 2, (2-iodo-phenyl)-(3-naphthalen-1-yl-imidazo[1,5-a]pyridin-1-yl)-methanone] | > 60
